# Laboratory results reported in the supplement of paper PMC8728848.
# Some of the results follow.
# B1: CBP21 (Serratia marcescens), O83009 (protein)
# chain: MNKTSRTLLSLGLLSAAMFGVSQQANAHGYVESPASRAYQCKLQLNTQCGSVQAEPQSVEGLKGFPQAGPADGHIASADKSTFFELDQQTPTRWNKLNLKTGPNSFTWKLTARHSTTSWRYFITKPNWDASQPLTRASFDLTPFCQFNDGGAIPAAQVTHQCNIPADRSGSHVILAVWDIADTANAFYQAIDVNLSK
# Assays:
# Assay in all cases: glycan array binding signal (z-score within array); higher = stronger binding
# Details in all cases: glycan notation: IUPAC condensed, linker removed; mutation: Y54A
# [1] = biological target: Fuc(a1-2)Gal6S(b1-3)GlcNAc
# Procedure, shortened: (§1)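 The binding signal is a Z-score computed within each array. Data were drawn from 3228 arrays in the Consortium for Functional Glycomics database, restricted to those with a known protein sequence. Scores were averaged over arrays of the same protein sequence at different concentrations or buffers, and over linkers, and negative values can be taken as non-binding.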
# [2] = biological target: Fuc(a1-2)Gal6S(b1-3)GlcNAc6S
# Procedure, shortened: as §1
# Fuc(a1-2)Gal6S(b1-4)Glc = biological target: Fuc(a1-2)Gal6S(b1-4)Glc
# Procedure, shortened: as §1
# [3] = biological target: Fuc(a1-2)Gal6S(b1-4)Glc6S
# Procedure, shortened: as §1
# Fuc(a1-2)[Gal(a1-3)]Gal = biological target: Fuc(a1-2)[Gal(a1-3)]Gal
# Procedure, shortened: as §1
# [4] = biological target: Fuc(a1-2)[Gal(a1-3)]Gal(b1-3)GalNAc
# Procedure, shortened: as §1
# [5] = biological target: Fuc(a1-2)[Gal(a1-3)]Gal(b1-3)GalNAc(b1-3)Gal(a1-4)Gal(b1-4)Glc
# Procedure, shortened: as §1
# [6] = biological target: Fuc(a1-2)[Gal(a1-3)]Gal(b1-3)GlcNAc
# Procedure, shortened: as §1
# [7] = biological target: Fuc(a1-2)[Gal(a1-3)]Gal(b1-3)GlcNAc(b1-2)Man(a1-3)[Fuc(a1-2)[Gal(a1-3)]Gal(b1-3)GlcNAc(b1-2)Man(a1-6)]Man(b1-4)GlcNAc(b1-4)GlcNAc
# Procedure, shortened: as §1
# [8] = biological target: Fuc(a1-2)[Gal(a1-3)]Gal(b1-3)GlcNAc(b1-2)Man(a1-3)[Fuc(a1-2)[Gal(a1-3)]Gal(b1-3)GlcNAc(b1-2)Man(a1-6)]Man(b1-4)GlcNAc(b1-4)[Fuc(a1-6)]GlcNAc
# Procedure, shortened: as §1
# [9] = biological target: Fuc(a1-2)[Gal(a1-3)]Gal(b1-3)GlcNAc(b1-3)GalNAc
# Procedure, shortened: as §1
# [10] = biological target: Fuc(a1-2)[Gal(a1-3)]Gal(b1-3)GlcNAc(b1-6)GalNAc
# Procedure, shortened: as §1
# [11] = biological target: Fuc(a1-2)[Gal(a1-3)]Gal(b1-4)Glc
# Procedure, shortened: as §1
# [12] = biological target: Fuc(a1-2)[Gal(a1-3)]Gal(b1-4)GlcNAc
# Procedure, shortened: as §1
# [13] = biological target: Fuc(a1-2)[Gal(a1-3)]Gal(b1-4)GlcNAc(b1-2)Man
# Procedure, shortened: as §1
# [14] = biological target: Fuc(a1-2)[Gal(a1-3)]Gal(b1-4)GlcNAc(b1-2)Man(a1-3)[Fuc(a1-2)[Gal(a1-3)]Gal(b1-4)GlcNAc(b1-2)Man(a1-6)]Man(b1-4)GlcNAc(b1-4)GlcNAc
# Procedure, shortened: as §1
# [15] = biological target: Fuc(a1-2)[Gal(a1-3)]Gal(b1-4)GlcNAc(b1-2)Man(a1-3)[Fuc(a1-2)[Gal(a1-3)]Gal(b1-4)GlcNAc(b1-2)Man(a1-6)]Man(b1-4)GlcNAc(b1-4)[Fuc(a1-6)]GlcNAc
# Procedure, shortened: as §1
# [16] = biological target: Fuc(a1-2)[Gal(a1-3)]Gal(b1-4)GlcNAc(b1-3)GalNAc
# Procedure, shortened: as §1
# [17] = biological target: Fuc(a1-2)[Gal(a1-3)]Gal(b1-4)GlcNAc(b1-3)[Fuc(a1-2)[Gal(a1-3)]Gal(b1-4)GlcNAc(b1-6)]GalNAc
# Procedure, shortened: as §1
# [18] = biological target: Fuc(a1-2)[Gal(a1-3)]Gal(b1-4)GlcNAc(b1-6)GalNAc
# Procedure, shortened: as §1
# [19] = biological target: Fuc(a1-2)[Gal(a1-3)]Gal(b1-4)[Fuc(a1-3)]Glc
# Procedure, shortened: as §1
# [20] = biological target: Fuc(a1-2)[Gal(a1-3)]Gal(b1-4)[Fuc(a1-3)]GlcNAc
# Procedure, shortened: as §1
# [21] = biological target: Fuc(a1-2)[Gal(a1-3)]Gal(b1-4)[Fuc(a1-3)]GlcNAc(b1-3)GalNAc
# Procedure, shortened: as §1
# [22] = biological target: Fuc(a1-2)[Gal(a1-4)]Gal(b1-4)GlcNAc
# Procedure, shortened: as §1
# [23] = biological target: Fuc(a1-2)[GalNAc(a1-3)]Gal
# Procedure, shortened: as §1
# [24] = biological target: Fuc(a1-2)[GalNAc(a1-3)]Gal(b1-3)GalNAc(a1-3)[Fuc(a1-2)]Gal(b1-4)GlcNAc
# Procedure, shortened: as §1
# [25] = biological target: Fuc(a1-2)[GalNAc(a1-3)]Gal(b1-3)GalNAc(b1-3)Gal(a1-4)Gal(b1-4)Glc
# Procedure, shortened: as §1
# [26] = biological target: Fuc(a1-2)[GalNAc(a1-3)]Gal(b1-3)GlcNAc
# Procedure, shortened: as §1
# [27] = biological target: Fuc(a1-2)[GalNAc(a1-3)]Gal(b1-3)GlcNAc(b1-2)Man(a1-3)[Fuc(a1-2)[GalNAc(a1-3)]Gal(b1-3)GlcNAc(b1-2)Man(a1-6)]Man(b1-4)GlcNAc(b1-4)GlcNAc
# Procedure, shortened: as §1
# [28] = biological target: Fuc(a1-2)[GalNAc(a1-3)]Gal(b1-3)GlcNAc(b1-2)Man(a1-3)[Fuc(a1-2)[GalNAc(a1-3)]Gal(b1-3)GlcNAc(b1-2)Man(a1-6)]Man(b1-4)GlcNAc(b1-4)[Fuc(a1-6)]GlcNAc
# Procedure, shortened: as §1
# [29] = biological target: Fuc(a1-2)[GalNAc(a1-3)]Gal(b1-3)GlcNAc(b1-3)GalNAc
# Procedure, shortened: as §1
# [30] = biological target: Fuc(a1-2)[GalNAc(a1-3)]Gal(b1-3)GlcNAc(b1-6)GalNAc
# Procedure, shortened: as §1
# [31] = biological target: Fuc(a1-2)[GalNAc(a1-3)]Gal(b1-4)Glc
# Procedure, shortened: as §1
# [32] = biological target: Fuc(a1-2)[GalNAc(a1-3)]Gal(b1-4)GlcNAc
# Procedure, shortened: as §1
# [33] = biological target: Fuc(a1-2)[GalNAc(a1-3)]Gal(b1-4)GlcNAc(b1-2)Man
# Procedure, shortened: as §1
# [34] = biological target: Fuc(a1-2)[GalNAc(a1-3)]Gal(b1-4)GlcNAc(b1-2)Man(a1-3)[Fuc(a1-2)[GalNAc(a1-3)]Gal(b1-4)GlcNAc(b1-2)Man(a1-6)]Man(b1-4)GlcNAc(b1-4)GlcNAc
# Procedure, shortened: as §1
# [35] = biological target: Fuc(a1-2)[GalNAc(a1-3)]Gal(b1-4)GlcNAc(b1-2)Man(a1-3)[Fuc(a1-2)[GalNAc(a1-3)]Gal(b1-4)GlcNAc(b1-2)Man(a1-6)]Man(b1-4)GlcNAc(b1-4)[Fuc(a1-6)]GlcNAc
# Procedure, shortened: as §1
# [36] = biological target: Fuc(a1-2)[GalNAc(a1-3)]Gal(b1-4)GlcNAc(b1-3)Gal(b1-4)GlcNAc
# Procedure, shortened: as §1
# [37] = biological target: Fuc(a1-2)[GalNAc(a1-3)]Gal(b1-4)GlcNAc(b1-3)Gal(b1-4)GlcNAc(b1-3)Gal(b1-4)GlcNAc
# Procedure, shortened: as §1
# [38] = biological target: Fuc(a1-2)[GalNAc(a1-3)]Gal(b1-4)GlcNAc(b1-3)GalNAc
# Procedure, shortened: as §1
# [39] = biological target: Fuc(a1-2)[GalNAc(a1-3)]Gal(b1-4)GlcNAc(b1-3)[Fuc(a1-2)[GalNAc(a1-3)]Gal(b1-4)GlcNAc(b1-6)]GalNAc
# Procedure, shortened: as §1
# [40] = biological target: Fuc(a1-2)[GalNAc(a1-3)]Gal(b1-4)GlcNAc(b1-6)GalNAc
# Procedure, shortened: as §1
# [41] = biological target: Fuc(a1-2)[GalNAc(a1-3)]Gal(b1-4)[Fuc(a1-3)]GlcNAc
# Procedure, shortened: as §1
# [42] = biological target: Fuc(a1-2)[GalNAc(a1-3)]Gal(b1-4)[Fuc(a1-3)]GlcNAc(b1-3)GalNAc
# Procedure, shortened: as §1
# [43] = biological target: Fuc(a1-2)[GalNAc(a1-4)]Gal(b1-4)GlcNAc
# Procedure, shortened: as §1
binder,measurement,setting,value
B1,glycan array binding signal (z-score),[1],4.33
same,glycan array binding signal (z-score),[2],-0.379
same,glycan array binding signal (z-score),Fuc(a1-2)Gal6S(b1-4)Glc,-0.65
same,glycan array binding signal (z-score),[3],0.343
same,glycan array binding signal (z-score),Fuc(a1-2)[Gal(a1-3)]Gal,-0.156
same,glycan array binding signal (z-score),[4],-0.073
same,glycan array binding signal (z-score),[5],1.11
same,glycan array binding signal (z-score),[6],0.016
same,glycan array binding signal (z-score),[7],-0.566
same,glycan array binding signal (z-score),[8],-0.385
same,glycan array binding signal (z-score),[9],-0.461
same,glycan array binding signal (z-score),[10],-0.403
same,glycan array binding signal (z-score),[11],-0.969
same,glycan array binding signal (z-score),[12],-0.657
same,glycan array binding signal (z-score),[13],0.02
same,glycan array binding signal (z-score),[14],1.38
same,glycan array binding signal (z-score),[15],-0.454
same,glycan array binding signal (z-score),[16],2.45
same,glycan array binding signal (z-score),[17],0.01
same,glycan array binding signal (z-score),[18],-1.03
same,glycan array binding signal (z-score),[19],0.964
same,glycan array binding signal (z-score),[20],-0.1
same,glycan array binding signal (z-score),[21],2.87
same,glycan array binding signal (z-score),[22],0.389
same,glycan array binding signal (z-score),[23],-0.141
same,glycan array binding signal (z-score),[24],-0.283
same,glycan array binding signal (z-score),[25],-0.164
same,glycan array binding signal (z-score),[26],-0.825
same,glycan array binding signal (z-score),[27],2.23
same,glycan array binding signal (z-score),[28],0.995
same,glycan array binding signal (z-score),[29],-0.236
same,glycan array binding signal (z-score),[30],-0.531
same,glycan array binding signal (z-score),[31],-0.678
same,glycan array binding signal (z-score),[32],0.009
same,glycan array binding signal (z-score),[33],0.185
same,glycan array binding signal (z-score),[34],-0.269
same,glycan array binding signal (z-score),[35],0.185
same,glycan array binding signal (z-score),[36],-0.377
same,glycan array binding signal (z-score),[37],-0.624
same,glycan array binding signal (z-score),[38],-0.526
same,glycan array binding signal (z-score),[39],0.347
same,glycan array binding signal (z-score),[40],1.77
same,glycan array binding signal (z-score),[41],-0.69
same,glycan array binding signal (z-score),[42],-1.09
same,glycan array binding signal (z-score),[43],-0.648

# Retrieved one by one from the list above:
binder,measurement,setting,value
B1,glycan array binding signal (z-score),[4],-0.073
same,glycan array binding signal (z-score),[37],-0.624
same,glycan array binding signal (z-score),[41],-0.69
